Reference: PMC3962495
These are yes or no findings as the source states them, for the method shown. In cells and extracts the contact can be indirect. Some binding calls cover weakened binding; strength is not graded here.

Amino acid sequences for entries named in this document (tags omitted). A change or cut given only in a name is not applied to a line headed by its entry.
UniProt P14618: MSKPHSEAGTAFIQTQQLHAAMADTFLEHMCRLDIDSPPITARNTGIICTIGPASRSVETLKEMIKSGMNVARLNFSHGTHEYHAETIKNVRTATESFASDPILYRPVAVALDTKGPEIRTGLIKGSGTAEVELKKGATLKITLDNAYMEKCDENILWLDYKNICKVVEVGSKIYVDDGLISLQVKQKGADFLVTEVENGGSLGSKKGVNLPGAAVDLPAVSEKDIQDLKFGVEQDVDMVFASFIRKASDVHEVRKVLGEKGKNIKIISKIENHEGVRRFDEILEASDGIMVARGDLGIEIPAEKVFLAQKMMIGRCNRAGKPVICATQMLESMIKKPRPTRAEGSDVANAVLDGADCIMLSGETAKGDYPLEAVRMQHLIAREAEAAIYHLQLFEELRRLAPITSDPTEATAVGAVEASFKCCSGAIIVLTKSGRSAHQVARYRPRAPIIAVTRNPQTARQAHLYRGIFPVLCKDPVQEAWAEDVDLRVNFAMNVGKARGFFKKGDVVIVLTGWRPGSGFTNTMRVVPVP
UniProt P25685: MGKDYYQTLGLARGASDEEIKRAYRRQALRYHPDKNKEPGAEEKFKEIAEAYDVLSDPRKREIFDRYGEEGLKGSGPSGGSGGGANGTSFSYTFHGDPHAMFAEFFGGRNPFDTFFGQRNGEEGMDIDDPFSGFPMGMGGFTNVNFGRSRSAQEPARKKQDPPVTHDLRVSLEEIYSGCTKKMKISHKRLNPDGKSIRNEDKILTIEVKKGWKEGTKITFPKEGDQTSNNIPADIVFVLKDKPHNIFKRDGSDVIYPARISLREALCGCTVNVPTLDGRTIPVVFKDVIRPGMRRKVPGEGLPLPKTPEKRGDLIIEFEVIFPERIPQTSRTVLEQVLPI
UniProt P11142: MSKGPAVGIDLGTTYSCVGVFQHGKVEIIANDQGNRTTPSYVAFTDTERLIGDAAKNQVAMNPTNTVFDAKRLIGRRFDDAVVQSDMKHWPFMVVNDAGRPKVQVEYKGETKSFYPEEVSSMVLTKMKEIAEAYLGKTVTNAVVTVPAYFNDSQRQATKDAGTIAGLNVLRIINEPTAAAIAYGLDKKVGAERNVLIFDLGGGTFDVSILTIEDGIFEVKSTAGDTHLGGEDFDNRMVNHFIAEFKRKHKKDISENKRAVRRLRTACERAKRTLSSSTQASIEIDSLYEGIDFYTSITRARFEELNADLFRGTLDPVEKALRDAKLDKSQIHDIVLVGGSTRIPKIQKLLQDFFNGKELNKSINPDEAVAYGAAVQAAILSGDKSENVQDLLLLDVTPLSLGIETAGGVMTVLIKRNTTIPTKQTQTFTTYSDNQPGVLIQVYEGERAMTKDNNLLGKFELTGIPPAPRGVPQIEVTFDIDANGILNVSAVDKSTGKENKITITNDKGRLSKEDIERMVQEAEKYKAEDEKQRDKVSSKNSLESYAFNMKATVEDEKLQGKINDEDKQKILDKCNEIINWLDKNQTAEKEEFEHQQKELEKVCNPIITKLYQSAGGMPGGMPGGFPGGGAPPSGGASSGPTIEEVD

How the values were obtained:
[1] = target: HA-PKM2 (full-length pyruvate kinase M2) (human) (UniProt P14618); assay: co-IP; HEK293T cells co-transfected with HA- and Flag-tagged proteins; whole cell lysate with anti-HA or anti-Flag antibody and protein A plus-agarose overnight at 4 °C; blot for the other tag
[2] = target: Flag-HSP40 (full-length HSP40/DNAJB1) (human) (UniProt P25685); assay: as above
[3] = target: endogenous PKM2 of HeLa cells (human (endogenous in HeLa)) (UniProt P14618); assay: co-IP; endogenous proteins of HeLa cell lysate; anti-PKM2 or anti-HSP40 antibody and protein A plus-agarose overnight at 4 °C; blot with anti-PKM2 and anti-HSP40
[4] = target: endogenous HSP40 of HeLa cells (human (endogenous in HeLa)) (UniProt P25685); assay: as above

Flag-HSP40 (full-length HSP40/DNAJB1) (from UniProt P25685-1 1-340)
binding [1]: binds

HA-HSC70 (full-length HSC70) (from UniProt P11142 1-646)
binding [2]: binds

HA-PKM2 (full-length pyruvate kinase M2) (from UniProt P14618 1-531)
binding [2]: binds

endogenous HSP40 of HeLa cells (from UniProt P25685 1-340)
binding [3]: binds

endogenous PKM2 of HeLa cells (from UniProt P14618 1-531)
binding [4]: binds
